Source: PubChem BioAssay AID624291 (National Center for Advancing Translational Sciences (NCATS), 2012)
About 220 (0.063%) of roughly 350,000 compounds were called active. This list was built around the results that the source calls inconclusive (neither active nor inactive); the mix of calls is not that of the screen. Calls come from the whole dose curve; as a rule, active = well fitted activation curve with a large enough effect; inconclusive = small, poorly fitted or top-dose-only effect; inactive = no such curve, though single readings can be large or run the other way. Potencies of inconclusive entries are doubtful fits and often do not repeat.

Assay: qHTS for Activators of Integrin-Mediated Alleviation for Muscular Dystrophy; note: nearly all actives have a fitted effect of over 60% in size;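 for activation: 100% = response of the positive control SU9516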
Details: alpha7betagal myoblasts, beta-gal FDG fluorescence, 48 h; activation: at 38.3 µM (top of the series)
Procedure, shortened: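 alpha7betagal+/- myoblasts (passage 13, 250/well) treated 48 h at 37C with compounds at 1:260 dilution of DMSO stock. Lysed, then beta-galactosidase activity read as FDG fluorescence (ex 480/em 540) after 30 min, with pre-read for autofluorescence.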
Potency is the fitted concentration of half-maximal effect.

Row | Compound | activation | Potency
1 | O=[N+]([O-])c1ccc(NC(=S)NCc2ccncc2)cc1 | inactive: -35.1% | 
2 | CN(C)S(=O)(=O)n1cc(/C=C(\NC(=O)c2ccccc2Cl)C(=O)N2CCCC2)c2ccccc21 |  | inconclusive: 4.47 µM [activator, single point]
3 | CCC1CCCCN1C(=O)COc1ccc(F)cc1 (configuration not stated) |  | inconclusive: 28.2 µM [activator, single point]
4 | O=C(CCc1nnc(CCc2ccccc2)o1)NC(c1cccnc1)C(F)(F)F (configuration not stated) |  | inconclusive: 2.51 µM [activator, partial curve, poor fit]
5 | CCCOC(=O)c1ccc(NC(=O)c2nc3nc(C)cc(C)n3n2)cc1 |  | inconclusive: 1.26 µM [activator, partial curve, poor fit]
6 | NNc1nc2c(-c3ccc(Cl)cc3)nnn2c2ccccc12 | inactive: 9.94% | 
7 | O=C(c1ccco1)N1N=C(c2ccc3nccnc3c2)CC1c1ccccc1 (configuration not stated) |  | inconclusive: 10 µM [activator, partial curve]
8 | Cn1c(COc2cccc3cccnc23)nnc1SCC(=O)O |  | inconclusive: 0.501 µM [activator, full curve, poor fit]
9 | O=C(Nc1ccccc1Br)c1ccc(N2CCCC2=O)cc1 | inactive: 11.3% | 
10 | CC1CCN(c2ccc(-c3cccc(NC(=O)C(F)(F)F)c3)nn2)CC1 | inactive: 7.01% | 
11 | CCn1cnc2cc(NC(=O)c3cccs3)ccc21 |  | inconclusive: 3.16 µM [activator, single point]
12 | Cc1ccc(NC(=O)Nc2cnccn2)cc1C |  | inconclusive: 1.26 µM [activator, partial curve, poor fit]
13 | O=C1CCc2cc(S(=O)(=O)Nc3ccc(C(F)(F)F)cc3)cc3c2N1CC3 |  | active: 11.2 µM
14 | CN(C(=O)COc1ccc(Br)cc1Cl)C1CCCCC1 |  | inconclusive: 28.2 µM [activator, single point]
15 | CCOC(=O)CN1C(=O)N[C@H](c2ccc(Br)cc2)C(C(C)=O)=C1C | inactive: -23.9% | 
16 | Cc1csc2nc3cc(C(N)=O)ccc3c(=O)n12 | inactive: -19% | 
17 | N=NC(=O)c1ccccc1Nc1c(O)[nH]c2ccccc12 | inactive: -20.2% | 
18 | CC(C)C(=O)Nc1c(-c2ccccc2Cl)c(=O)c2ccccc2n1C |  | inconclusive: 5.62 µM [activator, partial curve, poor fit]
19 | CCCCCNC(=O)C(C#N)c1nc2ccccc2nc1N1CCCC1 (configuration not stated) | inactive: 22.1% | 
20 | c1ccc(-c2cnc(-c3ccccc3)nn2)cc1 | inactive: 3.63% | 
21 | N#Cc1ccc(OCC(=O)N2CCCC2=O)cc1 |  | inconclusive: 8.91 µM [activator, partial curve, poor fit]
22 | O=C(c1ccccc1)c1c(O)nc(-c2ccccc2)n(-c2ccccc2)c1=O |  | inconclusive: 28.2 µM [activator, single point]
23 | CC(=O)N1CCN(c2nc3ccc(Br)cc3s2)CC1 |  | inconclusive: 5.01 µM [activator, single point]
24 | CC1=CC(=C(C#N)C#N)C=C(C)N1CCN1CCNCC1 |  | inconclusive: 11.2 µM [activator, partial curve, poor fit]

Some values from the list.
For Potency, N#Cc1ccc(OCC(=O)N2CCCC2=O)cc1 reads inconclusive: 8.91 µM [activator, partial curve, poor fit]
For Potency, CC1=CC(=C(C#N)C#N)C=C(C)N1CCN1CCNCC1 reads inconclusive: 11.2 µM [activator, partial curve, poor fit]
For Potency, O=C(CCc1nnc(CCc2ccccc2)o1)NC(c1cccnc1)C(F)(F)F (configuration not stated) reads inconclusive: 2.51 µM [activator, partial curve, poor fit]
For activation, Cc1csc2nc3cc(C(N)=O)ccc3c(=O)n12 reads inactive: -19%

Next structures follow:

Row | Compound | activation | Potency
25 | O=S(=O)(c1ccc(F)cc1)N1CCCN(c2nccc(C(F)(F)F)n2)CC1 |  | inconclusive: 7.94 µM [activator, partial curve, poor fit]
26 | COc1cccc(OCC(=O)NNC(=O)C(=O)Nc2cccc(C)c2)c1 |  | inconclusive: 2.82 µM [activator, single point]
27 | CS(=O)(=O)N1N=C(c2ccco2)CC1c1ccc(Cl)cc1Cl (configuration not stated) |  | inconclusive: 2.24 µM [activator, full curve, poor fit]
28 | CSc1ccc2c(c1)C(N1CCN(C)CC1)Cc1ccc(F)cc1S2 (configuration not stated) | inactive: -62% | 
29 | CC(=O)c1ccc(N(C(=O)c2csnn2)C(C(=O)NC2CCCC2)c2ccccc2)cc1 (configuration not stated) | inconclusive: -55.5% [activator] | 
30 | COc1ccc(N2CCN(CC(=O)c3ccc(Cl)cc3)CC2)cc1 |  | inconclusive: 3.55 µM [activator, partial curve, poor fit]
31 | Cn1c(=O)c(C(=O)CCl)c(N)n(Cc2ccccc2)c1=O | inactive: 12.6% | 
32 | O=C(/C=C/c1ccc(Cl)c([N+](=O)[O-])c1)Nc1cccc(NC(=O)c2ccco2)c1 | inactive: 8.84% | 
33 | Cn1c(=O)c2nc(SCc3ccccc3)n(C)c2n(C)c1=O |  | inconclusive: 11.2 µM [activator, single point]
34 | Cc1cc(C)cc(OCC(=O)NC2CCCc3ccccc32)c1 (configuration not stated) |  | inconclusive: 0.891 µM [activator, full curve, poor fit]
35 | CCCCc1nc2cc(Cl)ccc2o1 |  | inconclusive: 12.6 µM [activator, single point]
36 | O=C(c1cc(-c2cccc(Cl)c2)on1)N1CCN(c2ccccc2)CC1 | inconclusive: 18.5% [activator] | 
37 | O=C1c2ccccc2NC2CCCCCN12 (configuration not stated) | inactive: -17.2% | 
38 | COc1ccc(NC(=O)C2CCCN2S(=O)(=O)c2ccc3c(c2)CC(C)N3C(C)=O)cc1OC (configuration not stated) |  | inconclusive: 28.2 µM [activator, single point]
39 | COc1ccccc1C(OC(=O)c1ccco1)C(=O)NCc1ccc(F)cc1 (configuration not stated) |  | inconclusive: 2.82 µM [activator, single point]
40 | CCOC(=O)C1=C(C)Nc2ccccc2N=C1NC(=O)c1cc(C)on1 |  | inconclusive: 1.78 µM [activator, full curve, poor fit]
41 | Cc1csc(N/N=C/c2ccccc2F)n1 | inactive: 0% | 
42 | C/C(=N\NC(=O)c1cc([N+](=O)[O-])cc([N+](=O)[O-])c1)c1ccco1 |  | inconclusive: 28.2 µM [activator, partial curve, poor fit]
43 | Cc1cccc(Nc2ncnc(N)c2[N+](=O)[O-])n1 |  | inconclusive: 0.316 µM [activator, full curve, poor fit]
44 | CCC(=O)N1CCc2cc(S(=O)(=O)NC(Cc3ccccc3)C(=O)Nc3nccs3)ccc21 (configuration not stated) |  | inconclusive: 3.55 µM [activator, partial curve, poor fit]
45 | O=C(NCCN1CCOCC1)c1cc(Sc2ccc(F)cc2F)nc2ccccc12 |  | inconclusive: 5.01 µM [activator, single point]
46 | Cc1c(Cl)cccc1NC(=O)CC1Sc2ccccc2NC1=O (configuration not stated) | inactive: -22.7% | 
47 | CC(C)c1ccc(NC(=O)c2ccc3c(c2)CCN3S(C)(=O)=O)cc1 |  | inconclusive: 5.01 µM [activator, single point]
48 | O=C(CSc1nc2ccsc2c(=O)n1CC1CCC(C(=O)O)CC1)c1ccc(Cl)cc1 (configuration not stated) |  | inconclusive: 15.8 µM [activator, single point]

Row | Compound | activation | Potency
49 | CCN1C(=O)c2cccc3cccc1c23 |  | inconclusive: 28.2 µM [activator, single point]
50 | O=S1(=O)N=C(N/N=C/c2ccccn2)c2ccccc21 | inactive: 17.1% | 
51 | CC(=O)NC(CC(=O)N(C)Cc1c(F)cccc1Cl)c1ccccc1 (configuration not stated) |  | inconclusive: 5.01 µM [activator, single point]
52 | CCC(C(=O)NC(C)(C)C)N(Cc1cccs1)C(=O)CNS(=O)(=O)c1ccccc1 (configuration not stated) |  | inconclusive: 5.01 µM [activator, single point]
53 | COc1ccc(CC(=O)Nc2ccc(-c3nc4cc(C)ccc4o3)c(O)c2)cc1OC |  | inconclusive: 3.55 µM [activator, single point]
54 | O=S(=O)(N/N=C/c1ccc2c(c1)OCCO2)c1ccccc1 | inactive: -12.5% | 
55 | COc1ccc(C(=O)NC(=S)N2CCOCC2)cc1[N+](=O)[O-] | inconclusive: 87.1% [activator] | 
56 | Cc1cc(C(=O)NCC(=O)OC(C)C(=O)N2CCOCC2)ccc1[N+](=O)[O-] (configuration not stated) |  | inconclusive: 10 µM [activator, partial curve, poor fit]
57 | CCOC(=O)c1cc2c(ccn2C)n1Cc1ccccc1Cl |  | inconclusive: 2.82 µM [activator, partial curve, poor fit]
58 | CCC(=O)NC(NC(=S)Nc1cccc2cccnc12)C(Cl)(Cl)Cl (configuration not stated) | inactive: 2.78% | 
59 | COCCN(C(=O)COC(=O)c1oc2ccc(OC)cc2c1C)c1c(N)n(Cc2ccccc2)c(=O)[nH]c1=O |  | inconclusive: 7.94 µM [activator, partial curve]
60 | COc1ccc(C(=O)COC(=O)CCNS(=O)(=O)c2ccccc2)c(OC)c1 | inactive: 1.65% | 
61 | O=C(Nc1ccc(Br)cc1)C1CCCC1 | inactive: 14.3% | 
62 | Cc1ccc(-c2onc3ccc(C(=O)/C=C/N(C)C)cc23)cc1 |  | active: 3.55 µM
63 | COc1cc(/C=N/Nc2nc(C)cc(=O)[nH]2)cc(OC)c1O |  | inconclusive: 7.94 µM [activator, partial curve, poor fit]
64 | CCc1ccc(NC(=O)CSc2nnc(-c3ccco3)o2)cc1 |  | inconclusive: 3.55 µM [activator, single point]
65 | CCOC(=O)c1ccc2[nH]c3c(c2c1)CCCCC3=O | inactive: 19.6% | 
66 | Cc1cccc(Oc2nc(CN3CCOCC3)nc3sc4c(c23)CCCC4)c1 | inactive: -16.4% | 
67 | CN(Cc1c(C(=O)N/N=C/c2cccc(F)c2)nnn1-c1nonc1N)c1ccccc1 |  | active: 5.62 µM
68 | COC(=O)C1=C(O)/C(=C\c2ccc(CNC(=O)C(=O)Nc3ccc(C)cc3)o2)N=C1C |  | inconclusive: 3.55 µM [activator, partial curve, poor fit]
69 | Fc1ccc(CNCc2ccco2)cc1 |  | inconclusive: 3.55 µM [activator, single point]
70 | CC(C)CN(C(=O)COC(=O)Cc1cccc2ccccc12)c1c(N)n(Cc2ccccc2)c(=O)[nH]c1=O | inactive: 0% | 
71 | Cc1ccc(S(=O)(=O)NC(=O)COc2ccccc2)cc1 |  | inconclusive: 3.16 µM [activator, single point]
72 | O=C(Cc1cccs1)NCc1ccc(Cl)cc1Cl | inactive: 13.3% | 
